# According to PubChem BioAssay AID2685 (National Center for Advancing Translational Sciences (NCATS), 2010):
# This is one part of the list. These are further read-outs of the screen, such as a control signal, another cell line or another target. No call is given for them. The list favours compounds with an active or inconclusive main result. Words in brackets tell the shape of the fitted curve; partial curves, single points and poor fits give uncertain potencies.
# Assay: qHTS Assay for Lipid Storage Modulators in Drosophila S3 Cells;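 as to cell number change: cells counted by Cell Tracker Red CMTPX staining in the red channel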
# Details: BODIPY lipid droplet fluorescence, 18-24 h; for cell number change: measured here: cell count max response, cells fed with added oleic acid
# Outline: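 Drosophila S3 cells got compounds at several concentrations plus oleic acid (400 uM solution). Laser-scanning cytometry with 488 nm excitation read lipid droplets at 500-530 nm and cells at 575-640 nm. Percent activity was relative to 20 uM Triacsin C.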
# [1] = measured here: cell number channel AC50, cells fed with added oleic acid
# [2] = measured here: lipid fluorescence (Fed channel) AC50, cells fed with added oleic acid
SMILES,AC50 [1],AC50 [2],cell number change
COc1ccccc1NC(=O)COc1ccc(C(=O)OCC(=O)N(C(C)C)C(C)C)cc1OC,"2.06 µM [rising, partial curve]","1.3 µM [rising, partial curve]",
C/C(=N\NC(=O)c1ccc(CN2CCOCC2)cc1)c1ccc(NC(=O)c2ccccc2)cc1,,,26.2%
O=C(CCCc1c[nH]c2ccccc12)NCCc1c[nH]c2ccccc12,,"18.4 µM [rising, single point]",21.8%
CCCNc1ncccc1C(N)=O,"3.66 µM [falling, full curve]","5.17 µM [falling, single point]",-40.3%
CSc1cccc(NC(=O)c2cc(S(=O)(=O)N3CCCC3)cn2C)c1,"16.4 µM [falling, partial curve, poor fit]",,-38.6%
O=C(NCc1cccs1)C(=O)NCC1OCCCN1S(=O)(=O)c1ccc(F)cc1 (configuration not stated),,,25.5%
COCCCNC(=O)Cn1c(=O)n(CC(=O)NCCc2ccc(OC)c(OC)c2)c(=O)c2sccc21,,"20.6 µM [rising, single point]",24%
CCOc1ccccc1NC(=O)COC(=O)c1cc(C(=O)OC)cc([N+](=O)[O-])c1,,"10.3 µM [rising, partial curve, poor fit]",16.7%
COCCCNC(=O)c1cc(C(=O)c2ccccc2Br)c[nH]1,,,16.8%
CC(C)c1ccc(NC(=S)N2CCN(Cc3ccccc3)CC2)cc1,,"0.103 µM [falling, full curve, poor fit]",
O=C(c1cncs1)N1CCCC(CNS(=O)(=O)c2cccs2)C1 (configuration not stated),"0.146 µM [falling, full curve, poor fit]",,-9.24%
CC(C)[C@H](NC(=O)c1ccccc1)C(=O)OCC(=O)c1ccccc1F,,"6.51 µM [rising, partial curve, poor fit]",
Cc1cc(C(=O)CN2C(=O)C(=O)N(CC(C)C)C2=O)c(C)n1C1CC1,,"0.82 µM [falling, single point]",-0.367%
Cc1ccc(N/C(SCc2ccccc2C)=C(/C#N)C(=O)NCc2ccco2)cc1C,,"6.51 µM [rising, single point]",10.3%
O=C(OCC1OC2C(Oc3nc(=O)ccn32)C1O)c1ccccc1 (configuration not stated),,"8.2 µM [falling, partial curve]",10.1%
Cc1onc(-c2ccccc2)c1C(=O)N/N=C/C=C/c1ccccc1,"5.17 µM [rising, full curve, poor fit]","0.291 µM [rising, full curve]",30.1%
O=C(NC(NC(=S)Nc1c(Cl)cccc1Cl)C(Cl)(Cl)Cl)c1cccc([N+](=O)[O-])c1 (configuration not stated),,"4.11 µM [falling, partial curve]",
O=C(NC1CCCCC1)c1cccc(S(=O)(=O)N2CCOCC2)c1,"6.51 µM [falling, single point]",,
CC1CCCN(C(=O)CN(C)S(=O)(=O)c2ccc3c(c2)c(=O)n(C)c(=O)n3C)C1 (configuration not stated),"0.58 µM [falling, full curve]","18.4 µM [falling, partial curve]",2.59%
CCOc1ccc(NC(=O)NNC(=O)C(C)Oc2ccccc2OC)cc1 (configuration not stated),,"9.2 µM [rising, partial curve, poor fit]",22.2%

SMILES,AC50 [1],AC50 [2],cell number change
O=C(Nc1ccc(Cn2nnc3ccccc32)cc1)c1ccco1,"29.1 µM [falling, single point]","4.11 µM [rising, full curve]",-30.7%
Cc1cnc(C(=O)OCC(=O)NC2CCCCC2)cn1,,,1.97%
O=C(COC(=O)C1COc2ccccc2O1)Nc1cccc(S(=O)(=O)N2CCCCC2)c1 (configuration not stated),"14.6 µM [falling, partial curve, poor fit]","23.1 µM [falling, partial curve]",-74%
Cc1cccc(NC(=O)CN(C)C(=O)c2ccc3ccccc3n2)c1C,"0.517 µM [rising, partial curve]",,
OC(C#Cc1ccccn1)c1cccs1 (configuration not stated),"20.6 µM [falling, single point]","29.1 µM [falling, single point]",-59.9%
O=C(Nc1ccccc1O)c1c(O)c2c([nH]c1=O)CCCC2,"25.9 µM [falling, single point]",,-49.4%
O=C(CSc1cn[nH]n1)Nc1ccccc1C(=O)O,,,11.8%
Cc1cccc(C)c1NC(=S)N/N=C1\CC2CC=CC12 (configuration not stated),"6.51 µM [rising, single point]",,
CCc1ccc(NS(=O)(=O)c2ccc3[nH]cc(C(=O)NCC4CCCO4)c(=O)c3c2)cc1 (configuration not stated),"6.51 µM [rising, single point]",,3.91%
O=C(NCc1ccccn1)c1cccc(NS(=O)(=O)c2cccc(F)c2)c1,,"11.6 µM [rising, partial curve, poor fit]",-0.738%
Nc1ncc(-n2cncn2)c(-c2ccc(Cl)cc2)n1,,,-12.9%
Clc1ccc(-c2cc(C3CCNCC3)[nH]n2)c(Cl)c1,"29.1 µM [rising, single point]",,33.5%
CCNC(=O)C(=O)c1c(-c2ccccc2)[nH]c2ccccc12,"0.259 µM [falling, full curve, poor fit]","0.326 µM [falling, full curve, poor fit]",-32.8%
Cc1ccc(SCc2nc(-c3ccccc3)no2)cc1,,"8.2 µM [falling, partial curve]",-5.95%
CCOc1ccc(OCC)c(S(=O)(=O)N2CCCCC2C)c1 (configuration not stated),,,-9.53%
COc1ccc(S(=O)(=O)N2CCN(Cc3ccc4c(c3)OCO4)CC2)cc1,"1.64 µM [rising, partial curve, poor fit]","5.17 µM [falling, single point]",-2.56%
Cc1cc(S(=O)(=O)Nc2ccc3cn[nH]c3c2)c(C)cc1Cl,,"0.231 µM [rising, full curve, poor fit]",5.24%
CN1CCN(c2nc(N3CCN(c4ccccc4)CC3)ncc2F)CC1,,"23.1 µM [rising, single point]",2.7%
O=C(NC(=S)NNC(=O)c1cccs1)c1ccc(Br)o1,"0.13 µM [falling, full curve, poor fit]","0.58 µM [falling, single point]",
CNC(=O)c1ccccc1-c1cn(C)c2ccccc2c1=O,,,22.6%

SMILES,AC50 [1],AC50 [2],cell number change
O=C(O)COc1c(-c2ccccc2)oc2ccccc2c1=O,,"20.6 µM [falling, partial curve]",
CN(c1ccc(C(=O)NC2CC2)cc1)S(=O)(=O)c1ccccc1,,,11.4%
NS(=O)(=O)c1ccc(NC(=O)c2cccc(Cl)c2)cc1,"6.51 µM [falling, full curve, poor fit]","6.51 µM [falling, single point]",-35.5%
CN(c1ccc(F)cc1)S(=O)(=O)c1ccc(Cl)c(C(=O)NCC2CCCO2)c1 (configuration not stated),,"0.146 µM [falling, full curve, poor fit]",-12.9%
CCOc1ccccc1NC1c2ccccc2C(=O)N1c1cccnc1 (configuration not stated),"1.84 µM [rising, partial curve, poor fit]",,
CS(=O)(=O)NCCNC(=O)c1cc(OCC(F)(F)F)ccc1OCC(F)(F)F,"0.00461 µM [rising, full curve, poor fit]",,-34.9%
COc1ccc([N+](=O)[O-])cc1NS(=O)(=O)c1cc(C(=O)O)ccc1OC,"18.4 µM [falling, partial curve]","23.1 µM [falling, partial curve]",-37.5%
Cc1cc(C(=O)N/N=C/c2ccco2)c2ccccc2n1,,"0.092 µM [falling, full curve, poor fit]",2.9%
O=C(CSc1n[nH]c(=O)[nH]c1=O)N/N=C/c1ccccc1,"5.8 µM [falling, single point]",,
O=C1CCc2cc(S(=O)(=O)NC(Cc3ccccc3)C(=O)NC3CCCCC3)ccc2N1 (configuration not stated),"20.6 µM [falling, single point]",,-33.3%
Cc1c(O)ccc2c3c(c(=O)oc12)CCC(C)C3 (configuration not stated),,"4.11 µM [falling, single point]",-2.93%
CC(C)CN(CC(C)C)C(=O)CN1C(=O)NC2(CCCc3ccccc32)C1=O (configuration not stated),"0.651 µM [rising, full curve, poor fit]","0.731 µM [rising, single point]",23.9%
CC(=O)c1ccc(S(=O)(=O)Nc2cccc(-c3ccc4nncn4n3)c2)cc1,"0.291 µM [rising, partial curve]",,4.28%
N/C(=N\OC(=O)c1cccc(Br)c1)c1ccncc1,,"7.31 µM [falling, single point]",18.5%
Cc1cccc(N(CC(=O)NC2CCCC2)C(=O)c2cc3cc4cccc(C)c4nc3s2)c1C,,,19.3%
Nc1ncccc1C(=O)OCC(=O)NC1CCCCCC1,,"6.51 µM [rising, single point]",-0.775%
C/C(CC(=O)Nc1ccc2c(c1)OCCO2)=N\NC(=O)c1ccccc1Cl,,"0.58 µM [rising, single point]",3.04%
COc1ccc(-c2cc(C(=O)Nc3cccnc3)c3ccccc3n2)cc1OC,,,-11.4%
CCCNc1nc(C)nc2c1cnn2CCc1ccccc1,"0.58 µM [rising, full curve]","2.31 µM [rising, full curve]",109%
CC1CC(C)CN(C(=O)Cn2c(SCC(=O)N3CCc4ccccc4C3)nc3ccccc32)C1 (configuration not stated),,"14.6 µM [rising, partial curve]",20.9%

# Grouped by structure: the entries above containing bromine
SMILES,AC50 [1],AC50 [2],cell number change
COCCCNC(=O)c1cc(C(=O)c2ccccc2Br)c[nH]1,,,16.8%
O=C(NC(=S)NNC(=O)c1cccs1)c1ccc(Br)o1,"0.13 µM [falling, full curve, poor fit]","0.58 µM [falling, single point]",
N/C(=N\OC(=O)c1cccc(Br)c1)c1ccncc1,,"7.31 µM [falling, single point]",18.5%
